{
  "source": "paper PMC9102673",
  "binders": {"B1": {"name": "KRT85 (protein, UniProt P78386 1-507)", "chain": "MSCRSYRISSGCGVTRNFSSCSAVAPKTGNRCCISAAPYRGVSCYRGLTGFGSRSLCNLGSCGPRIAVGGFRAGSCGRSFGYRSGGVCGPSPPCITTVSVNESLLTPLNLEIDPNAQCVKQEEKEQIKSLNSRFAAFIDKVRFLEQQNKLLETKWQFYQNQRCCESNLEPLFSGYIETLRREAECVEADSGRLASELNHVQEVLEGYKKKYEEEVALRATAENEFVVLKKDVDCAYLRKSDLEANVEALVEESSFLRRLYEEEIRVLQAHISDTSVIVKMDNSRDLNMDCIIAEIKAQYDDVASRSRAEAESWYRSKCEEMKATVIRHGETLRRTKEEINELNRMIQRLTAEIENAKCQRAKLEAAVAEAEQQGEAALSDARCKLAELEGALQKAKQDMACLLKEYQEVMNSKLGLDIEIATYRRLLEGEEHRLCEGVGSVNVCVSSSRGGVSCGGLSYSTTPGRQITSGPSAIGGSITVVAPDSCAPCQPRSSSFSCGSSRSVRFA"}, "B2": {"name": "KRT86 (protein, UniProt O43790 1-486)", "chain": "MTCGSYCGGRAFSCISACGPRPGRCCITAAPYRGISCYRGLTGGFGSHSVCGGFRAGSCGRSFGYRSGGVCGPSPPCITTVSVNESLLTPLNLEIDPNAQCVKQEEKEQIKSLNSRFAAFIDKVRFLEQQNKLLETKLQFYQNRECCQSNLEPLFEGYIETLRREAECVEADSGRLASELNHVQEVLEGYKKKYEEEVSLRATAENEFVALKKDVDCAYLRKSDLEANVEALIQEIDFLRRLYEEEIRVLQSHISDTSVVVKLDNSRDLNMDCIIAEIKAQYDDIVTRSRAEAESWYRSKCEEMKATVIRHGETLRRTKEEINELNRMIQRLTAEVENAKCQNSKLEAAVAQSEQQGEAALSDARCKLAELEGALQKAKQDMACLIREYQEVMNSKLGLDIEIATYRRLLEGEEQRLCEGVGSVNVCVSSSRGGVVCGDLCASTTAPVVSTRVSSVPSNSNVVVGTTNACAPSARVGVCGGSCKRC"}, "B3": {"name": "PGAM2 (protein, UniProt P15259 1-253)", "chain": "MATHRLVMVRHGESTWNQENRFCGWFDAELSEKGTEEAKRGAKAIKDAKMEFDICYTSVLKRAIRTLWAILDGTDQMWLPVVRTWRLNERHYGGLTGLNKAETAAKHGEEQVKIWRRSFDIPPPPMDEKHPYYNSISKERRYAGLKPGELPTCESLKDTIARALPFWNEEIVPQIKAGKRVLIAAHGNSLRGIVKHLEGMSDQAIMELNLPTGIPIVYELNKELKPTKPMQFLGDEETVRKAMEAVAAQGKAK"}, "B4": {"name": "ZNF622 (protein, UniProt Q969S3 1-477)", "chain": "MATYTCITCRVAFRDADMQRAHYKTDWHRYNLRRKVASMAPVTAEGFQERVRAQRAVAEEESKGSATYCTVCSKKFASFNAYENHLKSRRHVELEKKAVQAVNRKVEMMNEKNLEKGLGVDSVDKDAMNAAIQQAIKAQPSMSPKKAPPAPAKEARNVVAVGTGGRGTHDRDPSEKPPRLQWFEQQAKKLAKQQEEDSEEEEEDLDGDDWEDIDSDEELECEDTEAMDDVVEQDAEEEEAEEGPPLGAIPITDCLFCSHHSSSLMKNVAHMTKDHSFFIPDIEYLSDIKGLIKYLGEKVGVGKICLWCNEKGKSFYSTEAVQAHMNDKSHCKLFTDGDAALEFADFYDFRSSYPDHKEGEDPNKAEELPSEKNLEYDDETMELILPSGARVGHRSLMRYYKQRFGLSRAVAVAKNRKAVGRVLQQYRALGWTGSTGAALMRERDMQYVQRMKSKWMLKTGMKNNATKQMHFRVQVRF"}, "B5": {"name": "E2F7 (protein, UniProt Q96AV8 1-911)", "chain": "MEVNCLTLKDLISPRQPRLDFAVEDGENAQKENIFVDRSRMAPKTPIKNEPIDLSKQKKFTPERNPITPVKFVDRQQAEPWTPTANLKMLISAASPDIRDREKKKGLFRPIENKDDAFTDSLQLDVVGDSAVDEFEKQRPSRKQKSLGLLCQKFLARYPSYPLSTEKTTISLDEVAVSLGVERRRIYDIVNVLESLHLVSRVAKNQYGWHGRHSLPKTLRNLQRLGEEQKYEEQMAYLQQKELDLIDYKFGERKKDGDPDSQEQQLLDFSEPDCPSSSANSRKDKSLRIMSQKFVMLFLVSKTKIVTLDVAAKILIEESQDAPDHSKFKTKVRRLYDIANVLTSLALIKKVHVTEERGRKPAFKWIGPVDFSSSDEELVDVSASVLPELKRETYGQIQVCAKQKLARHGSFNTVQASERIQRKVNSEPSSPYREEQGSGGYSLEIGSLAAVYRQKIEDNSQGKAFASKRVVPPSSSLDPVAPFPVLSVDPEYCVNPLAHPVFSVAQTDLQAFSMQNGLNGQVDVSLASAASAVESLKPALLAGQPLVYVPSASLFMLYGSLQEGPASGSGSERDDRSSEAPATVELSSAPSAQKRLCEERKPQEEDEPATKRQSREYEDGPLSLVMPKKPSDSTDLASPKTMGNRASIPLKDIHVNGQLPAAEEISGKATANSLVSSEWGNPSRNTDVEKPSKENESTKEPSLLQYLCVQSPAGLNGFNVLLSGSQTPPTVGPSSGQLPSFSVPCMVLPSPPLGPFPVLYSPAMPGPVSSTLGALPNTGPVNFSLPGLGSIAQLLVGPTAVVNPKSSTLPSADPQLQSQPSLNLSPVMSRSHSVVQQPESPVYVGHPVSVVKLHQSPVPVTPKSIQRTHRETFFKTPGSLGDPVLKRRERNQSRNTSSAQRRLEIPSGGAD"}, "B6": {"name": "TEX14 (protein, UniProt Q8IWB6 1-1497)", "chain": "MSRAVRLPVPCPVQLGTLRNDSLEAQLHEYVKQGNYVKVKKILKKGIYVDAVNSLGQTALFVAALLGLRKFVDVLVDYGSDPNHRCFDGSTPVHAAAFSGNQWILSKLLDAGGDLRLHDERGQNPKTWALTAGKERSTQIVEFMQRCASHMQAIIQGFSYDLLKKIDSPQRLVYSPSWCGGLVQGNPNGSPNRLLKAGVISAQNIYSFGFGKAMPWFQFYLTGATQMAYLGSLPVIGEKEVIQADDEPTFSFFSGPYMVMTNLVWNGSRVTVKELNLPTHPHCSRLRLADLLIAEQEHSSKLRHPYLLQLMAVCLSQDLEKTRLVYERITIGTLFSVLHERRSQFPVLHMEVIVHLLLQISDALRYLHFQGFIHRSLSSYAVHIISPGEARLTNLEYMLESEDRGVQRDLTRVPLPTQLYNWAAPEVILQKAATVKSDIYSFSMIMQEILTDDIPWKGLDGSVVKKAVVSGNYLEADVRLPKPYYDIVKSGIHVKQKDRTMNLQDIRYILKNDLKDFTGAQRTQPTESPRVQRYGLHPDVNVYLGLTSEHPRETPDMEIIELKEMGSQPHSPRVHSLFTEGTLDPQAPDPCLMARETQNQDAPCPAPFMAEEASSPSTGQPSLCSFEINEIYSGCLILEDDIEEPPGAASSLEADGPNQVDELKSMEEELDKMEREACCFGSEDESSSKAETEYSFDDWDWQNGSLSSLSLPESTREAKSNLNNMSTTEEYLISKCVLDLKIMQTIMHENDDRLRNIEQILDEVEMKQKEQEERMSLWATSREFTNAYKLPLAVGPPSLNYIPPVLQLSGGQKPDTSGNYPTLPRFPRMLPTLCDPGKQNTDEQFQCTQGAKDSLETSRIQNTSSQGRPRESTAQAKATQFNSALFTLSSHRQGPSASPSCHWDSTRMSVEPVSSEIYNAESRNKDDGKVHLKWKMEVKEMAKKAATGQLTVPPWHPQSSLTLESEAENEPDALLQPPIRSPENTDWQRVIEYHRENDEPRGNGKFDKTGNNDCDSDQHGRQPRLGSFTSIRHPSPRQKEQPEHSEAFQASSDTLVAVEKSYSHQSMQSTCSPESSEDITDEFLTPDGEYFYSSTAQENLALETSSPIEEDFEGIQGAFAQPQVSGEEKFQMRKILGKNAEILPRSQFQPVRSTEDEQEETSKESPKELKEKDISLTDIQDLSSISYEPDSSFKEASCKTPKINHAPTSVSTPLSPGSVSSAASQYKDCLESITFQVKTEFASCWNSQEFIQTLSDDFISVRERAKKLDSLLTSSETPPSRLTGLKRLSSFIGAGSPSLVKACDSSPPHATQRRSLPKVEAFSQHHIDELPPPSQELLDDIELLKQQQGSSTVLHENTASDGGGTANDQRHLEEQETDSKKEDSSMLLSKETEDLGEDTERAHSTLDEDLERWLQPPEESVELQDLPKGSERETNIKDQKVGEEKRKREDSITPERRKSEGVLGTSEEDELKSCFWKRLGWSESSRIIVLDQSDLSD"}},
  "note": "Results are given in words; binding and its absence hold for the method and conditions named. In cells and extracts the contact can be indirect. These calls come from enrichment with a bait or labelling near it, and not all partners need be listed. Tags and fused reporters may be left off the sequences shown.",
  "data": [
    {"biological_target": "T1, DDIT4–APEX2 fusion protein (rigid linker) (human) (UniProt Q9NX09)", "T1 sequence": "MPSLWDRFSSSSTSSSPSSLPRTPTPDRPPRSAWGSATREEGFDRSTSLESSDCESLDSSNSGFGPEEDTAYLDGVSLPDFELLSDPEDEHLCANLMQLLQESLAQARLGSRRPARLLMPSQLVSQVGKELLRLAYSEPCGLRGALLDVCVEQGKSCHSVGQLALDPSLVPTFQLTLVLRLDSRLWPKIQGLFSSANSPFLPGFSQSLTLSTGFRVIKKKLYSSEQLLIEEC", "experiment": "proximity labelling; DDIT4–APEX2 (rigid linker) expressed in SK-N-SH cells; 1 mM biotin tyramide 45 min at 37 °C with or without 330 μM NaAsO2, 1 mM H2O2 for 1.5 min; biotinylated proteins captured on streptavidin magnetic particles and identified by LC-MS/MS; proteins labelled by APEX2 alone filtered out", "values": [
      {"binder": "B1", "binding": "binds"},
      {"binder": "B2", "binding": "binds"},
      {"binder": "B3", "binding": "binds"},
      {"binder": "B4", "binding": "binds"},
      {"binder": "B5", "binding": "binds"},
      {"binder": "B6", "binding": "binds"}
    ]}
  ]
}
